No constants are given. Whether binding was seen depends on the method and setting. In cells and extracts the contact can be indirect. A yes stands for co-enrichment or nearness to the bait. Other partners may have been found. Sequences can lack the tags named with a protein. Each block holds one binder with its values, some of them ahead of it.
Columns and labels:
Assay in all cases: affinity purification with mass spectrometry; whole ovaries of flies expressing GFP-tagged baits lysed in 50 mM Tris-HCl pH 7.5, 100 mM NaCl, 250 mM sucrose, 0.1% Nonidet P-40, 1 mM DTT; RNase A/T1 treated; GFP-TRAP MA beads, 1 h at 4 °C; tag alone as control; label-free LC-MS/MS (all six baits) and dimethyl labeling MS (Hrp48, Vas)
[1] = target: T1, Vas-GFP (Drosophila melanogaster) (UniProt P09052)
T1 sequence: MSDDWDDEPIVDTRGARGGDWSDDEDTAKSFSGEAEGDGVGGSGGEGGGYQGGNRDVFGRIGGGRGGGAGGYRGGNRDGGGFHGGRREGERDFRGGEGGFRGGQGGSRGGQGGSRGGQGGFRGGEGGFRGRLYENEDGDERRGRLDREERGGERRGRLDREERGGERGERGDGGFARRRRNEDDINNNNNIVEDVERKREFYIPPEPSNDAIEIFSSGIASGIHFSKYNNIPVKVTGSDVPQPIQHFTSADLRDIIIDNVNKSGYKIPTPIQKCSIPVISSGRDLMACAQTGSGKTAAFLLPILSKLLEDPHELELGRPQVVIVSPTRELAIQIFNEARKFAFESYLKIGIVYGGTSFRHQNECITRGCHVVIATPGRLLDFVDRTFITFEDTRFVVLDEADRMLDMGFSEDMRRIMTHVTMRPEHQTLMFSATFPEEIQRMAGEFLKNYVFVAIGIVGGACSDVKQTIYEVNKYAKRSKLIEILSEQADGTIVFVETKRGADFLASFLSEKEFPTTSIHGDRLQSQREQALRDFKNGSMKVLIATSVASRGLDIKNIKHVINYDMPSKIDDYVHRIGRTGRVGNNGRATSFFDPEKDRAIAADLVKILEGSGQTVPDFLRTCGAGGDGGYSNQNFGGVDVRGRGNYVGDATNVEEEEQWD

[2] = target: T2, Hrp48-GFP (Drosophila melanogaster) (UniProt P48809)
T2 sequence: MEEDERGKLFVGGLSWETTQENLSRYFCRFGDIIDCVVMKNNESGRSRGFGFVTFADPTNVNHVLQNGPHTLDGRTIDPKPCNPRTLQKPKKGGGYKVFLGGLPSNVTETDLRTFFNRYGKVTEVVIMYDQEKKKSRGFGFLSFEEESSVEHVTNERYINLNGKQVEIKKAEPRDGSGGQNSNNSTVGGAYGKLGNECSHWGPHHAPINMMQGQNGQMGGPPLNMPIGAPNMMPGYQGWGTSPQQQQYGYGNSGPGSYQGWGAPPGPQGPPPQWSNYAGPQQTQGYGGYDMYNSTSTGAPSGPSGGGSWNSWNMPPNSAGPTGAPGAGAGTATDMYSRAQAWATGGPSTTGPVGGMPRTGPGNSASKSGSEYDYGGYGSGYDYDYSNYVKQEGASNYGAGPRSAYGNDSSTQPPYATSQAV

[3] = target: T3, Glo-GFP (Drosophila melanogaster) (UniProt Q9VGH5)
T3 sequence: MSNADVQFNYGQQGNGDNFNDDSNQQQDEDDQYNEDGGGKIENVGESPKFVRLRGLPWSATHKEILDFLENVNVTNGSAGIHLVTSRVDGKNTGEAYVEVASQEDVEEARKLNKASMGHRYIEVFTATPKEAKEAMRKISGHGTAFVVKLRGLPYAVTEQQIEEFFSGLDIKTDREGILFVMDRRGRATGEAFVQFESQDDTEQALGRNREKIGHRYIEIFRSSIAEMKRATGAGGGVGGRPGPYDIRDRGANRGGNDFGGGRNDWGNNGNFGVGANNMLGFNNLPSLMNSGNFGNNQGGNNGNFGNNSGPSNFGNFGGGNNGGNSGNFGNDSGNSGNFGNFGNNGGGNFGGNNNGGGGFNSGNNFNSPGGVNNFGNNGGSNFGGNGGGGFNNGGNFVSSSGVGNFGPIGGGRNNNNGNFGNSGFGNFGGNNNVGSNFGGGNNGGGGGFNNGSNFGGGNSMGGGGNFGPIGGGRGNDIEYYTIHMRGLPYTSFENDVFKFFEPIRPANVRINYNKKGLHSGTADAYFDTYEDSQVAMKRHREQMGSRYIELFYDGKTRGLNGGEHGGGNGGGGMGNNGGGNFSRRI

B1: F-box synaptic protein (protein, UniProt Q9V6L9 1-255)
chain: MVDPVAALCNYNVLEVIFSYLELDDLSHCSQVCKSWYHFLNDENSDVWRWHCLNKLPKESLKSDLLASVSTYKTKLRAYFHAWSPNDCSRNVYIKPNGFTLHRNPVAQSTDAARGKIGFRHGRHTWEVIWEGPLGTVAVIGISTKEAALQCHGYVALLGSDDQSWGWNLVENHLLHNGDMQGSYPLLNNAPKYQVGERIRVILDCEDNTLSFEKNYEFLGVAFRGLPDKKLYPTVSAVYGNTEVSMVYLGTPLDG
binding [1]: binds

B2: Cup (protein, UniProt Q9VMA3 1-1117)
chain: MQMAEAEQENGAGALKIATNAGATDRPAHQQLPLPVEDQQDEVLTPAEKGKFEYPPPPPPPTPVQAPLATKATALNASQEHDDDEANSEKWEDPCAPPPPPPLPTSAFLATGLGYLKLPAFKLKDALEKAITKLEANKRTLKASPESSRSIKNKNVVALEMLPRRSNPETIGDGSMLASTSTAVMLQTKKPAVIVEMERRCKIINLLAKQNQILESISGEAIPMHGPSKHLHEDEGLTLQVLSARASTPYTQPSSMLSCTAVSCDLEHDSPRKQVASKEAVPEQQSSQVQQKRPPSTGIHKPGSLRAPKAVRPTTAPVVSSKPVKSYTRSRLMDIRNGMFNALMHRSKESFVMPRIATCDDIELEGRLRRMNIWRTSDGTRFRTRSTTANLNMNNNNNNECMPAFFKNKNKPNLISDESIIQSQPPQPQTEFQDPAIVNQRRIGSGRLNHSKWGYNDEDYHSYHNGKSQHMEEVNSKNSKNMTVLQFFDNGEISSQPQRRPNTPVMGMSINRSENDTLHSNESSEDLSRANENYVKRVMSGFLVVSKPKSRDVEDRHHRRYRNQNEEPEWFSCGPTSRLDTIELCGFDEDEEKMLKEGNKNHGLGETERETSKQKMDHKYKWTHAEPMGRSKYMPKHDTNNNHNVENMNNVMATEHQQQKEEKRPGSGRSFQFDKFNQSQQNYESSSYVNHQQPPQTQPQQMQQQSNTNTNNSKFMSFFANEGNSSSSSLNEFFKQAINQGHGNNPEQPKSLGHIGQMPSVDQLEAKWRRNSLNNVGETANKQTDNFQKLIGSLSSAKPQSQAVGYDAISNFIMQQQQYQQQQQKQHLIIQQQQQHTAFLASLQLKAILGRADTQLLLLRLTKGEISKHGLLVQLANPRLTDMDREAITAVLQFTNTQQQQQQHKQQLDMLSSTVIASQLQNLHNLAIVQQTLAARQQPQHNPQTQAPHQLSQEDLQAHANVIMRNAVMKRKIEEQTSKLINGGAKHQAQQQYLNRGQQRQARPDANSNALLHALISGGGNNHASGYPMNGQPQKHHSNLRFGDNQNFQSFESNQPHFATQYKQQYQQSQQQHPHQQPQQLNSLHQNNAGAVNSFNKAQMQAQSAISMLPNSGDEFH
binding [2]: binds

B5: Hrp48 (endogenous) (protein, UniProt P48809 1-421)
chain: T2 sequence
binding [3]: binds weakly

B6: Half pint (endogenous) (protein, UniProt Q8T6B9 1-637)
chain: MGSNDRASRSPRSDDQREISDMPATKRTRSDSGKSTDSKIPYLSQPLYDLKQTGDVKFGPGTRSALLGLLGGALPKLSSEQHDLVSKAKKYAMEQSIKMVLMKQTLAHQQQQLATQRTQVQRQQALALMCRVYVGSISFELKEDTIRVAFTPFGPIKSINMSWDPITQKHKGFAFVEYEIPEGAQLALEQMNGALMGGRNIKVGRPSNMPQAQQVIDEVQEEAKSFNRIYVASIHPDLSEEDIKSVFEAFGPILYCKLAQGTSLHTHKGYGFIEYANKQAMDEAIASMNLFDLGGQLLRVGRSITPPNALACPTTNSTMPTAAAVAAAAATAKIQALDAVASNAVLGLSQNTPVMAAGAVVTKVGAMPVVSAATSAAALHPALAQAAPALLPPGIFQAPTPVAPSLLGVPAGLQPLQAVVPTLPPPALLATPTLPMTVGGVGVGLVPTVATLAGAEASKGAAAAAALSAAANNAAVTAANLSENIKKAHEKQQEELQKKLMDEGDVQTLQQQENMSIKGQSARQLVMQRLMRPVDSRVIILRNMVGPEDVDETLQEEIQEECSKFGTVSRVIIFNEKQTENEDDDEAEIIVKIFVEFSAGAEAMRGKEALDGRFFGGRRVVAELYDQGIFDQGDLSG
binding [3]: binds weakly

B7: Gustavus (protein, UniProt A1Z6E0 1-279)
chain: MGQKISGGVKTVSRNDSQSTFKPIIPRELQADFVKPARIDILLDMPPASRDLQLKHSWNSEDRSLNIFVKEDDKLTFHRHPVAQSTDCIRGKVGLTKGLHIWEIYWPTRQRGTHAVVGVCTADAPLHSVGYQSLVGSTEQSWGWDLGRNKLYHDSKNCAGVTYPAILKNDEAFLVPDKFLVALDMDEGTLSFIVDQQYLGIAFRGLRGKKLYPIVSAVWGHCEITMRYIGGLDPEPLPLMDLCRRTIRQKIGRTNLEEHIQQLQLPLSMKTYLLYKNRR
binding [1]: binds

The next lines start with the values.

binding [2]: binds
B3: Ovarian Tumor (protein, UniProt P10383 1-853)
chain: MDMQVQRPITSGSRQAPDPYDQYLESRGLYRKHTARDASSLFRVIAEQMYDTQMLHYEIRLECVRFMTLKRRIFEKEIPGDFDSYMQDMSKPKTYGTMTELRAMSCLYRRNVILYEPYNMGTSVVFNRRYAENFRVFFNNENHFDSVYDVEYIERAAICQSIAFKLLYQKLFKLPDVSFAVEIMLHPHTFNWDRFNVEFDDKGYMVRIHCTDGRVFKLDLPGDTNCILENYKLCNFHSTNGNQSINARKGGRLEIKNQEERKASGSSGHEPNDLLPMCPNRLESCVRQLLDDGISPFPYKVAKSMDPYMYRNIEFDCWNDMRKEAKLYNVYINDYNFKVGAKCKVELPNETEMYTCHVQNISKDKNYCHVFVERIGKEIVVPYESLHPLPPDEYRPWSLPFRYHRQMPRLPLPKYAGKANKSSKWKKNKLFEMDQYFEHSKCDLMPYMPVDNCYQGVHIQDDEQRDHNDPEQNDQNPTTEQRDREEPQAQKQHQRTKASRVQPQNSSSSQNQEVSGSAAPPPTQYMNYVPMIPSRPGHLPPPWPASPMAIAEEFPFPISGTPHPPPTEGCVYMPFGGYGPPPPGAVALSGPHPFMPLPSPPLNVTGIGEPRRSLHPNGEDLPVDMVTLRYFYNMGVDLHWRMSHHTPPDELGMFGYHQQNNTDQQAGRTVVIGATEDNLTAVESTPPPSPEVANATEQSPLEKSAYAKRNLNSVKVRGKRPEQLQDIKDSLGPAAFLPTPTPSPSSNGSQFSFYTTPSPHHHLITPPRLLQPPPPPPIFYHKAGPPQLGGAAQGQTPYAWGMPAPVVSPYEVINNYNMDPSAQPQQQQPATLQPAPLSVQSQPAAVYAATRHH

binding [2]: binds
B4: Squid (protein, UniProt Q08473 1-344)
chain: MAENKQVDTEINGEDFTKDVTADGPGSENGDAGAAGSTNGSSDNQSAASGQRDDDRKLFVGGLSWETTEKELRDHFGKYGEIESINVKTDPQTGRSRGFAFIVFTNTEAIDKVSAADEHIINSKKVDPKKAKARHGKIFVGGLTTEISDEEIKTYFGQFGNIVEVEMPFDKQKSQRKGFCFITFDSEQVVTDLLKTPKQKIAGKEVDVKRATPKPENQMMGGMRGGPRGGMRGGRGGYGGRGGYNNQWDGQGSYGGYGGGYGGYGAGGYGDYYAGGYYNGYDYGYDGYGYGGGFEGNGYGGGGGGNMGGGRGGPRGGGGPKGGGGFNGGKQRGGGGRQQRHQPY

Reference: publication PMC8143644
